# Library screen at single concentrations

Each number is a percent effect as filed. The controls that fix the scale are not given in the record; negative values are as filed. Compounds were drawn at random from those tested, without regard to their results. Two or more numbers in one place are separate tests of the same structure; such repeats can differ widely.

Toxoplasma: 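Assay of Toxoplasma gondii numbers, read through their beta-galactosidase reporter with a colour substrate. Tested at 10 µM. Higher reads as fewer parasites (inferred from which compounds were picked for retests). Size under these conditions: about 67,000 compounds, about 260 of them at 50% or above in at least one test.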
Leishmania in macrophages: 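Cell assay of Leishmania donovani living inside macrophages; the read-out is not stated. Tested at 30 µM. The record gives no direction; compounds that gave an IC50 in retests scored well above the rest, so higher reads as stronger inhibition. Size under these conditions: about 69,000 compounds, about 1,000 of them at 50% or above in at least one test.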

- O=C(c1cccc(CO)n1)N1CCOC(c2ccc(Cl)c(Cl)c2)C1 (configuration not stated) | Toxoplasma: -3.375%; Leishmania in macrophages: 26.73%
- Cn1cnc2c1C(COCC1CC1)CN(C(=O)c1ccsc1)C2 (configuration not stated) | Toxoplasma: -1.354%; Leishmania in macrophages: 4.658% and -14.75%
- Cc1cc(CN(C)C2CCCN(Cc3noc(C)n3)C2)no1 (configuration not stated) | Toxoplasma: 22.43%; Leishmania in macrophages: -30.15%
- O=C(O)C(F)(F)F.[H][C@]12CCC[C@@]1(COc1cccnc1)CN(C(=O)C1CCOCC1)C2 | Toxoplasma: 11.92%; Leishmania in macrophages: 24%
- CCc1nnc2n1CCN(CCC(=O)Nc1sccc1C#N)C2 | Toxoplasma: 2.478%; Leishmania in macrophages: 20.61%
- O=C(NCc1ccccc1)NCc1nc(-c2ccncc2)n[nH]1 | Toxoplasma: -1.593%; Leishmania in macrophages: 23.22%
- Cc1cc(CNCC2(O)CCCN(CCCc3ccccc3)C2=O)n[nH]1 (configuration not stated) | Toxoplasma: -4%; Leishmania in macrophages: 5.515%
- CCNC(=O)[C@@H]1C[C@H](N)CN1c1cc(CC)nc(N(C)C)n1 | Toxoplasma: 13.41%; Leishmania in macrophages: 4.206%
- NC(=O)CN1CCC(NCc2cc(C(F)(F)F)ccc2Cl)CC1 | Toxoplasma: -4.153%; Leishmania in macrophages: 1.482%
- O=C(NCC1OCCc2cn(CC3CCOCC3)nc21)c1ccncc1.O=C(O)C(F)(F)F (configuration not stated) | Toxoplasma: -12.13%; Leishmania in macrophages: 37.48%
- Cc1cnn(C2CN(CC(=O)NCC(C)C)C2)c1 | Toxoplasma: -22.07%; Leishmania in macrophages: 15.55%
- O=C(O)C(F)(F)F.[H][C@@]12CCN(CC(C)C)[C@@]1([H])CCN2C(=O)N(C)C | Toxoplasma: -8.315%; Leishmania in macrophages: 2.469% and 18.05%
- CCc1nnsc1C(=O)N1CCCC(c2nc3ccccc3[nH]2)C1 (configuration not stated) | Toxoplasma: -39.57%; Leishmania in macrophages: 30.25%
- CCCc1ncc(CNC2(c3ccc(Cl)cc3)CC2)cn1 | Toxoplasma: 14.87%; Leishmania in macrophages: 28.95% and 17.98%
- Cn1cc(N2CCCC(Oc3ccc(F)cc3Cl)C2=O)cn1 (configuration not stated) | Toxoplasma: -10.85%; Leishmania in macrophages: 10.11%
- COc1cc2c(cc1C(=O)N1CCCCC1c1ccccn1)CCC2 (configuration not stated) | Toxoplasma: 11.95%; Leishmania in macrophages: 35.78%
- CCc1nnc(CN(C)C(=O)C(CC)n2c(CC)nc3ccccc32)o1 (configuration not stated) | Toxoplasma: -4.998%; Leishmania in macrophages: 37.19%
- CC(=O)NCCCc1ncnn1-c1cccc(Cl)c1 | Toxoplasma: 21.67%; Leishmania in macrophages: -4.184%
- C1CCC(CNC2CCCN(Cc3noc(C4CC4)n3)C2)C1 (configuration not stated) | Toxoplasma: 12.81%; Leishmania in macrophages: 19.77%
- CCCNC(=O)c1ccc(NC(=O)NC(C)c2ccccn2)cc1 (configuration not stated) | Toxoplasma: -1.966%; Leishmania in macrophages: 1.035%
- CC(c1ccc(F)cc1)n1ccnc1-c1cc2n(n1)CCCNC2 (configuration not stated) | Toxoplasma: -1.529%; Leishmania in macrophages: 25.53%
- Cc1n[nH]c(C)c1CNC(=O)c1cn(CCC2CCCCN2)nn1 (configuration not stated) | Toxoplasma: 4.401%; Leishmania in macrophages: 0.03088%
- O=C(C1CCCN(C2CCOCC2)C1)N1Cc2ccccc2C1 (configuration not stated) | Toxoplasma: 30.65%; Leishmania in macrophages: 5.22%
- Cc1nc(CN2CCCC(N(C)CC3(O)CCCCC3)C2)no1 (configuration not stated) | Toxoplasma: -5.073%; Leishmania in macrophages: 38.19%
- CCOc1cc(CNCc2nc(C)cc(=O)[nH]2)c(Cl)cc1OC(C)C | Toxoplasma: 32.54%; Leishmania in macrophages: 28.61%
- Cn1nc(C2CNCCO2)cc1CCOc1ccc(C(F)(F)F)cc1 (configuration not stated) | Toxoplasma: -2.817%; Leishmania in macrophages: -19.9%
- COCCc1noc(CN(C)c2cc(C)ncn2)n1 | Toxoplasma: 3.001%; Leishmania in macrophages: -22.57%
- COCC1CN(Cc2ccc(OC)cc2)Cc2nnn(CC3CC3)c21.O=C(O)C(F)(F)F (configuration not stated) | Toxoplasma: -1.869%; Leishmania in macrophages: -2.914%
- Cc1ccc(-c2nc(C(=O)N3CCN(C(=O)N(C)C)CC3)cs2)c(C)c1 | Toxoplasma: -27.12%; Leishmania in macrophages: 10.29%
- CC(C)c1n[nH]c(C2CN(C(=O)c3ccnc(C4CC4)n3)CCO2)n1 (configuration not stated) | Toxoplasma: 15.43%; Leishmania in macrophages: -32.62%
- O=C(O)C1(Cc2cccc(-c3ccc(F)c(F)c3)c2)CCOCC1 | Toxoplasma: -3.139%; Leishmania in macrophages: 0.6632%
- Cc1oc(C(=O)O)cc1S(=O)(=O)Nc1cccc(Cl)c1F | Toxoplasma: 2.293%; Leishmania in macrophages: -21.78%
- CCC(CNC(=O)c1cc(CC(C)C)nn1C)N(C)CC (configuration not stated) | Toxoplasma: -10.73%; Leishmania in macrophages: -7.349%
- O=C(c1ccc(S(=O)(=O)NCCc2ccncc2)cc1)N1CCCC1 | Toxoplasma: -1.408%; Leishmania in macrophages: 22.77%
- Cc1ncn(CCNC(=O)Nc2ccccc2)c(=O)c1C | Toxoplasma: -16.06%; Leishmania in macrophages: -0.1862%

For reference, 3 entries once more:

structure	Toxoplasma	Leishmania in macrophages
Cc1cc(CNCC2(O)CCCN(CCCc3ccccc3)C2=O)n[nH]1 (configuration not stated)	-4%	5.515%
O=C(NCC1OCCc2cn(CC3CCOCC3)nc21)c1ccncc1.O=C(O)C(F)(F)F (configuration not stated)	-12.13%	37.48%
Cc1ccc(-c2nc(C(=O)N3CCN(C(=O)N(C)C)CC3)cs2)c(C)c1	-27.12%	10.29%

The values are deposited in ChEMBL (CHEMBL3988442, “University of Dundee, Small-Polar-MMV Screening Library” (2021)).